Measured values taken from US20120225065A1.
Like-named read-outs stand apart in the source and are kept apart here. These are yes or no findings as the source states them, for the method shown. One block for each binder: values may come before it.

The chains behind the UniProt entries cited, without tags or fusion partners. Where a name states a change or a piece, a line headed by the entry shows the natural chain unless it says otherwise.
UniProt Q9P0W0: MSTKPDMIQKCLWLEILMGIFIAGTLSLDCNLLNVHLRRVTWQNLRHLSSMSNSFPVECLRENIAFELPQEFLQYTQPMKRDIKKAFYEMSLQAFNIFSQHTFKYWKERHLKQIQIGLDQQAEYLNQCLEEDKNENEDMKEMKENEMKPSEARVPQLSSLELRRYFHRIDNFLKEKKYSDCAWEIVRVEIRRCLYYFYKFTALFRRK

Experiments:
[1] = molecular target: Recombinant human IFN-λ (human) (UniProt Q9P0W0); experiment: Western blot
[2] = molecular target: Recombinant human IFN-λ (human) (UniProt Q9P0W0); experiment: Western blot; remark: listed apart in the source

binding [2]: no binding
B1: Human anti-human IL-21 monoclonal antibody clone 366.328.10 (antibody, V domains shown)
VH: EVQLVESGGGLVKPGGSLRLSCAASGFIFSSYSMNWVRQAPGKGLEWVSSITSGSYYIHYADSVKGRFTISRDNAKNSLYLQMNSLRAEDTAVYYCVRERGWGYYGMDVWGQGTTVTVSS
VL: AIQLTQSPSSLSASVGDRVTITCRASQDIDSALAWYQQKPGKAPKILIHDASSLESGVPSRFSGSGSGTDFTLTISSLQPEDFATYYCQQFNSYPYTFGQGTKLEIK
binding [1]: no binding (tested: 10 ng/ml or 100 ng/ml)

binding [2]: no binding
B2: Human anti-human IL-21 monoclonal antibody clone 366.552.11 (antibody, V domains shown)
VH: QVQLQESGPGLVKPSETLSLTCTVSGGSISSDFWGWIRQPPGKGLEWIGYISSRGSTNYNPSLKRRVTISVDTSRNQFSLKLSSVTAADTAVYYCARSAGVTDFDFWGQGTLVTVSS
VL: DIQMTQSPSSVSASVGDRVTITCRASQGISSWLAWYQHKPGKAPKLLIYVASSLQSGVPSRFSGSGSGTDFTLTISSLQPEDFATYYCQQANSFPLTFGGGTKVEIK
binding [1]: no binding (tested: 10 ng/ml or 100 ng/ml)
